From PubChem BioAssay AID2685 (National Center for Advancing Translational Sciences (NCATS), 2010)
This is one part of the list. The main result of the screen is listed elsewhere. These columns were measured beside it and carry no call. The list favours compounds with an active or inconclusive main result. Words in brackets tell the shape of the fitted curve; partial curves, single points and poor fits give uncertain potencies.

Assay: qHTS Assay for Lipid Storage Modulators in Drosophila S3 Cells;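 on cell number change: cells counted by Cell Tracker Red CMTPX staining in the red channel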
Settings: BODIPY lipid droplet fluorescence, 18-24 h; for cell number change: measured here: cell count max response, cells fed with added oleic acid
Method in brief: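 Laser-scanning cytometry quantifies lipid droplet accumulation (500–530 nm total intensity; droplet/cell object ratio) in oleic acid-fed (400 uM added) Drosophila S3 cells treated with a concentration series. 20 uM Triacsin C defined 100% inhibition.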

[1] = measured here: cell number channel AC50, cells fed with added oleic acid
[2] = measured here: lipid fluorescence (Fed channel) AC50, cells fed with added oleic acid

| Compound | AC50 [1] | AC50 [2] | cell number change |
| --- | --- | --- | --- |
| COc1ccc(OC)c(NC(=O)COC(=O)c2cc3c(s2)CCC3)c1 | 0.651 µM [rising, partial curve, poor fit] |  |  |
| COc1ccc2cnn(CCOc3cc(C)ccc3C(C)C)c(=O)c2c1OC |  | 5.8 µM [rising, partial curve] |  |
| COCCNC(=O)c1cc2sccc2n1C |  | 5.17 µM [rising, full curve, poor fit] | 0.873% |
| CCN(CC)S(=O)(=O)c1cccc(NC(=O)COC(=O)c2ccc(Br)o2)c1 | 13 µM [falling, partial curve] |  | -51.2% |
| CCOC(=O)Cn1c(=O)oc2cc(S(=O)(=O)N(C)c3ccc(OC)cc3)ccc21 | 6.51 µM [rising, single point] | 6.51 µM [rising, single point] | -10.2% |
| CN(C)Cc1ccc(CNC(=O)COc2ccc3ccccc3c2)cc1 |  | 4.11 µM [rising, full curve] | -5.71% |
| CC1CCCC(C)N1C(=O)Cn1nnc(-c2ccccc2)n1 (centres undefined) |  | 6.51 µM [rising, single point] | 14.4% |
| COC(=O)c1cc(NC(=O)Cc2cccs2)cc(C(=O)OC)c1 |  |  | 38.9% |
| CC(=O)C1=C(O)C(=O)N(c2cc(C(C)(C)C)on2)C1c1ccc(Br)cc1 (centres undefined) | 18.4 µM [falling, partial curve] | 0.13 µM [rising, full curve, poor fit] | -50.7% |
| COC(=O)/C(=C\Nc1ccc(OC)cc1)NC(=O)c1ccc(Cl)cc1Cl | 0.0058 µM [falling, full curve, poor fit] |  | -3.53% |
| CCOC(=O)c1cc(-c2cc3ccccc3o2)nc2c1c(=O)[nH]c(=O)n2CCOC |  | 0.517 µM [rising, full curve, poor fit] | 7.93% |
| Cc1cc(NS(=O)(=O)c2ccc(NC(=O)COc3ccccc3C(C)(C)C)cc2)no1 |  | 10.3 µM [rising, partial curve] | -2.89% |
| COc1ccc(C(=O)Cc2ccc(OC)c(OC)c2)cc1 |  |  | -14.1% |
| Cc1nc(N2CCN(C(=O)CCC(=O)O)CC2)c2c(C)c(C)sc2n1 |  |  | 2.66% |
| O=C(CSc1ccc([N+](=O)[O-])cc1)OCC(=O)N1CCCC1=O |  |  | -2.57% |
| CCc1ccccc1N1CC(C(=O)Nc2cc(C)on2)CC1=O (centres undefined) |  |  | 7.89% |
| CN1C(=O)C2(c3ccccc31)c1c(oc3ccccc3c1=O)C(=O)N2CCCO (centres undefined) |  | 0.0731 µM [rising, full curve, poor fit] | 19.8% |
| COc1ccccc1NS(=O)(=O)c1cccc(C(=O)N2CC(C)OC(C)C2)c1 (centres undefined) | 16.4 µM [falling, single point] | 18.4 µM [falling, single point] | -34.7% |
| O=C(NCC(=O)N1CCN(c2ccc(C(F)(F)F)cn2)CC1)c1ccc(Br)o1 |  | 6.51 µM [rising, single point] | 0.963% |
| CN(CC(=O)Nc1c(Cl)cccc1Cl)C(=O)CCc1nc2sc3c(c2c(=O)[nH]1)CCCC3 |  | 18.4 µM [rising, single point] | 15% |

| Compound | AC50 [1] | AC50 [2] | cell number change |
| --- | --- | --- | --- |
| CC(=O)c1c(C)nn(CC(=O)NC2CCCN(Cc3ccc(CC(C)C)cc3)C2)c1C (centres undefined) |  | 0.58 µM [rising, single point] | 11.6% |
| Cc1ccccc1Cn1c(=O)sc2ccccc2c1=O | 20.6 µM [rising, single point] |  | 53.1% |
| Cc1ccccc1NC(=O)CSc1nnc(C)c2ccccc12 |  |  | 10.1% |
| CC(C)NC(=O)c1c(CSc2ccccc2)noc1C(=O)NCc1ccccc1 |  | 4.11 µM [rising, full curve, poor fit] | 1.36% |
| COC(C[C@@H]1O[C@@H]1C(=O)COCc1ccccc1)OC |  | 0.326 µM [falling, full curve, poor fit] | -3.15% |
| C[C@H](NC(=O)c1nc[nH]c1C(=O)NCc1ccc(CNC(=O)OC(C)(C)C)cc1)C(=O)OC(C)(C)C |  | 29.1 µM [falling, single point] | -12.3% |
| O=C1OCCN1c1c(-c2ccccc2)c(-c2cccs2)nc2c(-c3ccccc3)cccc12 |  | 25.9 µM [falling, partial curve, poor fit] | -0.299% |
| CN(C)C1=NCCN1CCC1CCCCC1 |  | 23.1 µM [rising, single point] | -0.109% |
| COc1ccc(CC(NC(C)=O)C(=O)NC2CCN(C(=O)Nc3ccccc3Cl)CC2)cc1OC (centres undefined) | 25.9 µM [falling, single point] |  | -56.5% |
| Cc1ccc(S(=O)(=O)N2CCCCC2)cc1NC(=O)CSc1ncccn1 |  |  | -14.6% |
| CC1(C)CC(O)C(C(O)c2cccc([N+](=O)[O-])c2)C(C)(C)N1 (centres undefined) | 0.731 µM [falling, full curve] | 5.8 µM [falling, full curve] | -19.9% |
| O=C(O)CCc1ccc(-c2ccc(Br)cc2)n1Cc1ccco1 |  | 9.2 µM [falling, partial curve] |  |
| O=C(COC(=O)c1cc(Br)ccc1O)NNC(=O)c1cccs1 |  | 6.51 µM [falling, single point] | -9.27% |
| Cn1cc(C(=O)c2ccc(Cl)cc2Cl)cc1C(=O)N/N=C(\N)COc1ccc(Cl)cc1 |  | 14.6 µM [rising, partial curve] | 19.1% |
| O=C1CC(c2ccccc2)C(C(=O)O)N1 (centres undefined) |  | 3.26 µM [falling, single point] | 6.79% |
| CC1=NN(C(=O)COc2cc(C)ccc2C(C)C)C(O)(c2ccccc2)C1 (centres undefined) |  | 0.326 µM [falling, partial curve, poor fit] | -19.1% |
| COCCN(C(=O)Cc1cccs1)C(C(=O)NCc1ccc(OC)cc1)c1ccc(C(C)C)cc1 (centres undefined) | 2.31 µM [rising, single point] | 3.66 µM [rising, partial curve] |  |
| COc1ccc(N(CC(=O)NCc2ccc3c(c2)OCO3)S(=O)(=O)c2c(C)nn(C)c2C)cc1 | 0.0231 µM [rising, full curve, poor fit] |  | 23% |
| CCOc1ccc(CCNC(=O)CN2CCN(Cc3ccc(F)cc3)C2=O)cc1OCC |  | 3.66 µM [falling, full curve, poor fit] | -17.9% |
| C[N+]1=C(/C=C/Nc2ccccc2Cl)C(C)(C)c2ccccc21 |  | 16.4 µM [falling, single point] | -1.83% |

Single values from the results shown:
Cc1cc(NS(=O)(=O)c2ccc(NC(=O)COc3ccccc3C(C)(C)C)cc2)no1 – cell number change: -2.89%
CN1C(=O)C2(c3ccccc31)c1c(oc3ccccc3c1=O)C(=O)N2CCCO (centres undefined) – cell number change: 19.8%

Reprinted from the results shown, 2 compounds:

| Compound | AC50 [1] | AC50 [2] | cell number change |
| --- | --- | --- | --- |
| Cc1ccccc1NC(=O)CSc1nnc(C)c2ccccc12 |  |  | 10.1% |
| CC(C)NC(=O)c1c(CSc2ccccc2)noc1C(=O)NCc1ccccc1 |  | 4.11 µM [rising, full curve, poor fit] | 1.36% |

Remaining list, next part.

| Compound | AC50 [1] | AC50 [2] | cell number change |
| --- | --- | --- | --- |
| CCCCCCCC[n+]1c(C)n(-c2ccccc2)c2ccc(NC(C)=O)cc21 | 29.1 µM [falling, single point] | 29.1 µM [falling, partial curve] | -54.9% |
| CC(Sc1nnnn1-c1ccc(O)cc1)c1nc2ccccc2c(=O)[nH]1 (centres undefined) | 0.0651 µM [rising, full curve, poor fit] | 1.16 µM [rising, partial curve] | 17.5% |
| CC[n+]1c(/C=C/N(C)c2ccccc2)oc2ccc(Cl)cc21 |  | 29.1 µM [falling, single point] | -27.4% |
| CCCn1c(/C=C/c2cc[n+](C)cc2)nc2ccccc21 |  | 0.0517 µM [falling, full curve, poor fit] | -8.93% |
| NC1=NC(=Nc2cccc(S(N)(=O)=O)c2)c2ccccc21 | 25.9 µM [falling, single point] | 29.1 µM [falling, single point] | -41.3% |
| CCN(CCNC(=O)CN(C)S(=O)(=O)c1cccc2nsnc12)c1ccccc1 | 6.51 µM [rising, single point] | 6.51 µM [rising, single point] |  |
| Cc1onc(-c2ccccc2)c1C(=O)N1CCN(c2ccccc2F)CC1 |  |  | -7.89% |
| O=C(NC(=O)N1CCN(c2ccccc2F)CC1)c1ccccc1 |  | 5.8 µM [rising, partial curve] | 13.5% |
| COc1ccccc1NC(=O)CSc1nnnn1-c1ccccc1F |  | 29.1 µM [rising, single point] | 16.4% |
| COc1ccc(-c2ccc(SCC(=O)c3cccs3)nn2)cc1OC |  | 0.082 µM [falling, single point] | 13.9% |
| OCC[C@H]1C[C@H](O)[C@@H](O)[C@@]2(Cc3ccccc3CCO2)O1 | 2.91 µM [falling, partial curve] | 3.66 µM [falling, partial curve] | -34.2% |
| CN(C)S(=O)(=O)c1ccc(C(=O)Nc2ccc3c(c2)CCC3)cc1 |  | 29.1 µM [falling, single point] | 9.68% |
| CCOc1ccc(CCNC(=O)Cn2ncn3nc(-c4ccc(OC)cc4)cc3c2=O)cc1OCC |  | 16.4 µM [falling, partial curve] | -27% |
| O=C(O)CCSc1ccc2ccccc2n1 |  | 0.0058 µM [falling, full curve, poor fit] | 6.99% |
| O=C(Nc1nnc(SCc2ccccc2Cl)s1)C1COc2ccccc2O1 (centres undefined) |  | 0.146 µM [falling, full curve, poor fit] | -17.6% |
| O=C(O)Cn1c(SCCOc2ccc(Cl)cc2)nc2ccccc21 |  | 18.4 µM [rising, partial curve] | 14% |
| Cc1ccc(S(=O)(=O)N2CCCCC2)cc1NC(=O)C1CC(=O)N(Cc2ccccc2)C1 (centres undefined) |  | 2.31 µM [falling, full curve, poor fit] | -6.59% |
| C/C(=N\NC(=O)C1(C)CC1(Br)Br)c1ccc(NC(=O)c2ccc(C)o2)cc1 (centres undefined) | 20.6 µM [falling, partial curve, poor fit] | 23.1 µM [falling, single point] | -66.2% |
